Measured values published in PubChem BioAssay AID743255 (National Center for Advancing Translational Sciences (NCATS), 2014).
Hit rate of the full screen: of about 390,000 compounds, about 910 (0.23%) were called active. This list was built around the results that the source calls inconclusive (neither active nor inactive); the mix of calls is not that of the screen. Calls come from the whole dose curve; as a rule, active = well fitted inhibition curve with a large enough effect; inconclusive = small, poorly fitted or top-dose-only effect; inactive = no such curve, though single readings can be large or run the other way. Potencies of inconclusive entries are doubtful fits and often do not repeat.

Protein sequences, listed by entry. Tags and fused reporters are not part of them. Lines headed by an entry give the natural chain unless they say otherwise; changes in a name come on top.
UniProt O94782: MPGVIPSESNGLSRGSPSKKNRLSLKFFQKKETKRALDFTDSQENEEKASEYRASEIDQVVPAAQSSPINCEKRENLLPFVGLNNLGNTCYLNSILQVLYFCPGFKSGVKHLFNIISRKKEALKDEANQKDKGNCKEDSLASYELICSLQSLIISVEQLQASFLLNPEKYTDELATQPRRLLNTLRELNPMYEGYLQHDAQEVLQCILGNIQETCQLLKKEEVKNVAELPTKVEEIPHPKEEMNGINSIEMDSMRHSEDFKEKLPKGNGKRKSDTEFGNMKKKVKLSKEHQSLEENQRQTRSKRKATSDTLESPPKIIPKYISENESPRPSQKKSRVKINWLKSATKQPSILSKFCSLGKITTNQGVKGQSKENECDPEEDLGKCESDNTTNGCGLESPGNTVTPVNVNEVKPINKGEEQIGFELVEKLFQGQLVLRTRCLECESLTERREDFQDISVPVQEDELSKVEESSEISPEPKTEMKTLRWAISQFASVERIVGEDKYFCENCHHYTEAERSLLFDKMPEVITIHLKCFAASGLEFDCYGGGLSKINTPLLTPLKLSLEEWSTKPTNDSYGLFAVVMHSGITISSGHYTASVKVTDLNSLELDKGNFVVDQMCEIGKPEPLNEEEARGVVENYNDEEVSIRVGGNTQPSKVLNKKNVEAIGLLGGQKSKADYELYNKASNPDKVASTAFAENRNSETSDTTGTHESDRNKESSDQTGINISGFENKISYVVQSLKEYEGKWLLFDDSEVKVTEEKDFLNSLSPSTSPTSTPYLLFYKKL

Target: Ubiquitin carboxyl-terminal hydrolase 1 (Homo sapiens) (UniProt O94782)
Experiment: Inhibitors of USP1/UAF1: Primary Screen; note: nearly all actives have a fitted effect of over 60% in size
Conditions: recombinant USP1/UAF1, Ub-Rhodamine cleavage fluorescence; series mostly up to 57.1 µM
How it was run: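 Step one: compound is pinned into 1nM USP1/UAF1 in HEPES pH 7.8 buffer with TCEP. Step two: 15 min room-temperature incubation. Step three: Ub-Rho (150nM final) starts cleavage, tracked by fluorescence over six one-minute reads.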
Potency is the fitted concentration of half-maximal effect.

Potency, inconclusive:
CCOC(=O)N1CCN(C(=O)Cn2ccc3c(OC)cccc3c2=O)CC1 6.31 µM [inhibitor, single point], CCOC(=O)C1Nc2ccccc2C2c3ccccc3CC12 (stereo not given) 31.6 µM [inhibitor, single point], CC1(C(=O)NCCN2CCOCC2)C=CC2(CCCCC2)N1C(=O)c1ccccc1 (stereo not given) 0.251 µM [inhibitor, full curve, poor fit], Cc1csc(NC(=O)C2CCCN(S(=O)(=O)c3cnc[nH]3)C2)n1 (stereo not given) 0.708 µM [inhibitor, full curve, poor fit], CC(C)NC(=O)/C(C#N)=C\c1ccc(N(C)C)o1 31.6 µM [inhibitor, partial curve, poor fit], CC(=O)c1c(C)[nH]c(C(=O)OCc2cccc(Cl)c2)c1C 12.6 µM [inhibitor, partial curve, poor fit], Cc1cc(-c2nnc(CCC(=O)NC(c3ccccc3)c3ccccc3)o2)no1 4.47 µM [inhibitor, full curve, poor fit], CCc1ccc(-n2c(=O)c3sc4ccccc4c3n(CC(=O)NC3CCCCC3)c2=O)cc1 44.7 µM [inhibitor, partial curve, poor fit], COc1ccc2cc3cc(C(=O)N4CCN(c5cccc(Cl)c5)CC4)sc3nc2c1 3.98 µM [inhibitor, full curve], COc1ccc(C(C#N)=Cc2ccc(N(C)CCC#N)cc2)cc1 35.5 µM [inhibitor, partial curve], Cc1ccc(NC(=O)COC(=O)CC2CC3CCC2C3)cc1S(=O)(=O)N1CCOCC1 (stereo not given) 31.6 µM [inhibitor, partial curve], O/N=C1\CCCc2ccc3ccccc3c21 35.5 µM [inhibitor, partial curve], COC(=O)[C@]1(Cc2ccccc2)N[C@H](CN(C)C(=O)C2CCCCC2)[C@@H]2C(=O)N(C)C(=O)[C@@H]21 8.91 µM [inhibitor, partial curve, poor fit], CN1C(=O)c2cccc3c(N(C)C)ccc(c23)C1=O 35.5 µM [inhibitor, partial curve], Cc1ccc(-c2cn3nc(-c4ccccc4)c(-c4ccccc4)nc3n2)cc1 3.98 µM [inhibitor, full curve, poor fit], COc1cccc(/C=C2\Oc3cc(OCC(=O)N4Cc5ccccc5C[C@H]4C(=O)O)ccc3C2=O)c1 31.6 µM [inhibitor, partial curve], COc1ccc(CNC(=O)c2ccc(Br)o2)cc1 14.1 µM [inhibitor, partial curve], Nc1ccc2nc(-c3cccc(-c4nc5ccc(N)cc5[nH]4)n3)[nH]c2c1 35.5 µM [inhibitor, partial curve], CCN(C(=O)c1coc(=O)c(Br)c1)c1ccc2c(c1)OCO2 31.6 µM [inhibitor, partial curve], CCOc1ccc(-c2cc(OC(=O)c3ccc(OC)cc3)c3c(C)oc(C)c3c(=O)c2)cc1 44.7 µM [inhibitor, partial curve, poor fit], Cc1ccc(-c2nc3c4ccccc4[nH]c(=O)n3n2)cc1 141 µM [inhibitor, partial curve, poor fit], O=[N+]([O-])c1c(NCCO)cc(Sc2nc3ccccc3s2)c2nonc12 35.5 µM [inhibitor, partial curve], CCc1nc2ccc(C(=O)N3CCN(c4cccc(C)c4C)CC3)cc2nc1CC 8.91 µM [inhibitor, partial curve, poor fit], COC(=O)CCC(=O)OC1(C)C(=O)C2=COC(c3ccc(OC)cc3)=CC2=C(Br)C1=O (stereo not given) 10 µM [inhibitor, partial curve], O=C(Nc1ccc(OC(F)(F)F)cc1)c1nc2ccccc2nc1N1CCCCC1 5.62 µM [inhibitor, partial curve], O=C(NC(=S)NNC(=O)c1ccccc1O)c1ccc([N+](=O)[O-])cc1 50.1 µM [inhibitor, partial curve, poor fit], CCOc1ccc(NC(=O)CSc2nc(C)c(C(=O)Nc3ccccc3)c(-c3ccc(Cl)cc3)c2C#N)cc1 0.398 µM [inhibitor, full curve, poor fit], Cc1c(NS(=O)(=O)c2ccc(F)cc2)c(=O)n(-c2ccccc2)n1C 17.8 µM [inhibitor, partial curve], O=[N+]([O-])c1ccc(N2N=C(c3ccco3)CC2c2ccccc2)cc1 (stereo not given) 39.8 µM [inhibitor, partial curve, poor fit], Cc1cc(C)c2nc(N(Cc3cccnc3)C(=O)c3ccc(S(=O)(=O)N(C)C)cc3)sc2c1 50.1 µM [inhibitor, partial curve, poor fit]

Potency, inactive:
C=CCOC(=O)C1=C[C@@H](c2cn(C(C)=O)c3ccccc23)C[C@@H](OCc2ccc(CO)cc2)O1, Cc1ccc(C)c(CNC(=O)c2ccc3c(c2)nc2n3CCCCC2)c1, COc1ccc(Cn2c(=O)c3cccnc3n(CC(=O)Nc3ccc(C)c(F)c3)c2=O)cc1, Cc1[nH]n(-c2ccc([N+](=O)[O-])cc2)c(=O)c1C=NCC1CCCO1 (stereo not given), O=C(COc1ccc(Br)cc1)NNC(=S)NC(=O)c1ccccc1[N+](=O)[O-], Cc1cc(-c2ccccc2C(=O)O)on1, Cc1cc(C)cc(N(C(=O)c2cc3ccccc3oc2=O)C2C=CS(=O)(=O)C2)c1 (stereo not given), CCOC(=O)c1sc(NC(=O)CSc2nc(-c3ccco3)cc(C(F)(F)F)n2)c(C#N)c1C, NC1=NC2(CCC(c3ccccc3)CC2)n2c(nc3ccccc32)N1 (stereo not given), Cc1ccc(-c2nnc(N3CCN(C(=O)COc4ccccc4)CC3)c3ccccc23)cc1
